Experimental data reported in PubChem BioAssay AID248 (DTP/NCI, 2004).
The list does not hold the whole screen: it is rich in T/C values a quarter to a half above the control, in often repeated tests (any T/C) and in doses without a T/C. Further doses and runs are listed elsewhere. T/C: endpoint of the treated group in % of that of the vehicle group. Some entries give survivors of the animals treated and no T/C: the source holds a T/C of zero for them, seemingly a mark for toxic or unscored doses. Some survivor counts are full or nearly so, which does not show that the dose was tolerated: survival well below the control is almost never listed, so the zero probably covers shortened survival too. Counts of survivors are from the toxicity check (mostly the fifth day) where no day follows; animals may have died later. Schedule codes are those of the source, read here as Q, the interval in days (D) or hours (H), X, the number of doses. Some schedule codes hold Z or #, which are not explained here. Where survival is the endpoint, this PubChem deposit counts one and a half times the control or more as active, and values a quarter to a half above the control carry no call in these data; other NCI protocols may use other cut-offs. Some T/C values carry the count of animals alive at the toxicity check (mostly the fifth day); without a count, all were alive then. Some doses were run more than once; the values are given in rising order. Brackets with × count equal records among those shown.

Tested on: L1210 leukemia ip in BDF1 mice, survival T/C
Experiment: NCI In Vivo Anticancer Drug Screen. Data for tumor model L1210 Leukemia (intraperitoneal) in B6D2F1 (BDF1) mice
Conditions: T/C endpoint: mean survival time, higher T/C = longer survival
[1] = dose: 11.3 mg/kg/injection, schedule: Q01DX010 (ip), vehicle: saline

O=P1(N(CCCl)CCCl)NCCCO1 (stereo not drawn)
T/C (dose: 7.0 mg/kg/injection, schedule: Q01DX009 (ip), vehicle: saline): 107 (2×), 108, 111 % of control
T/C (dose: 8.0 mg/kg/injection, schedule: Q03HX032 (ip), vehicle: saline): 125 % of control
T/C (dose: 8.0 mg/kg/injection, schedule: Q## X032 (ip), vehicle: saline): 125 % of control
T/C [1]: 101, 103, 104 % of control
survivor count [1]: 0 of 6
T/C (dose: 12.5 mg/kg/injection, schedule: Q01DX009 (oral), vehicle: saline): 128 % of control
T/C (dose: 12.5 mg/kg/injection, schedule: Q01DX Z (ip), vehicle: saline): 110, 112, 117, 120, 141 % of control
T/C (dose: 14.0 mg/kg/injection, schedule: Q01DX009 (ip), vehicle: saline): 117 (2×), 118, 128 % of control
T/C (dose: 17.0 mg/kg/injection, schedule: Q01DX Z (ip), vehicle: saline): 136 % of control
T/C (dose: 19.0 mg/kg/injection, schedule: Q02DX010 (ip), vehicle: carboxymethylcellulose (CMC)): 133 % of control
T/C (dose: 19.7 mg/kg/injection, schedule: Q01DX010 (ip), vehicle: saline): 129 % of control
survivor count (dose: 20.0 mg/kg/injection, schedule: Q01DX Z (im), vehicle: saline): 6 of 6
T/C (dose: 20.0 mg/kg/injection, schedule: Q02DX010 (ip), vehicle: other): 125 % of control
T/C (dose: 22.0 mg/kg/injection, schedule: Q01DX015 (ip), vehicle: saline): 136 % of control
T/C (dose: 22.5 mg/kg/injection, schedule: Q01DX009 (ip), vehicle: saline): 130 and 137 % of control
T/C (dose: 22.5 mg/kg/injection, schedule: Q01DX010 (ip), vehicle: saline): 114, 118, 126, 130 % of control
T/C (dose: 22.5 mg/kg/injection, schedule: Q01DX Z (ip), vehicle: saline): 125, 132, 147 % of control
T/C (dose: 22.5 mg/kg/injection, schedule: Q13HX018 (ip), vehicle: saline): 142 % of control
T/C (dose: 22.5 mg/kg/injection, schedule: Q## X Z (ip), vehicle: saline): 141 % of control
T/C (dose: 25.0 mg/kg/injection, schedule: Q01DX001 (ip), vehicle: saline, evaluated on day 30): 101 and 105 % of control
T/C (dose: 25.0 mg/kg/injection, schedule: Q01DX001 (ip), vehicle: saline, evaluated on day 45): 108 % of control
T/C (dose: 25.0 mg/kg/injection, schedule: Q01DX001 (ip), vehicle: saline, evaluated on day 60): 105 and 107 % of control
T/C (dose: 25.0 mg/kg/injection, schedule: Q01DX001 (ip), vehicle: saline, run until all animals had died): 96, 111, 112, 121 % of control
T/C (dose: 25.0 mg/kg/injection, schedule: Q01DX009 (ip), vehicle: saline, evaluated on day 30): 132 % of control [5 of 6 alive]
T/C (dose: 25.0 mg/kg/injection, schedule: Q01DX009 (ip), vehicle: saline, evaluated on day 60): 146 % of control
T/C (dose: 25.0 mg/kg/injection, schedule: Q01DX009 (oral), vehicle: saline): 136 % of control
T/C (dose: 25.0 mg/kg/injection, schedule: Q01DX Z (ip), vehicle: methylcellulose (MC)): 129 % of control [5 of 6 alive]
T/C (dose: 25.0 mg/kg/injection, schedule: Q01DX Z (ip), vehicle: saline): 118, 120 (2×), 130, 145 % of control
T/C (dose: 25.0 mg/kg/injection, schedule: Q01DX Z (oral), vehicle: saline): 135 % of control
T/C (dose: 25.0 mg/kg/injection, schedule: Q01DX Z (sc), vehicle: saline): 125 % of control
T/C (dose: 26.0 mg/kg/injection, schedule: Q02DX010 (ip), vehicle: carboxymethylcellulose (CMC)): 142 % of control
T/C (dose: 26.0 mg/kg/injection, schedule: Q02DX010 (ip), vehicle: saline): 127 % of control
T/C (dose: 27.0 mg/kg/injection, schedule: Q01DX009 (ip), vehicle: saline): 123, 133, 136 [2 of 2 alive], 147 % of control
T/C (dose: 27.0 mg/kg/injection, schedule: Q01DX015 (ip), vehicle: saline): 135 % of control
T/C (dose: 28.0 mg/kg/injection, schedule: Q02DX010 (ip), vehicle: saline): 130 and 135 % of control
T/C (dose: 28.5 mg/kg/injection, schedule: Q01DX Z (ip), vehicle: carboxymethylcellulose (CMC)): 136 % of control
T/C (dose: 28.6 mg/kg/injection, schedule: Q02DX010 (ip), vehicle: carboxymethylcellulose (CMC)): 138 % of control
T/C (dose: 30.0 mg/kg/injection, schedule: Q02DX010 (ip), vehicle: other): 129 and 142 % of control
T/C (dose: 30.0 mg/kg/injection, schedule: Q04DX002 (ip), vehicle: saline): 125 % of control
T/C (dose: 33.7 mg/kg/injection, schedule: Q## X006 (ip), vehicle: saline): 144 % of control
T/C (dose: 35.0 mg/kg/injection, schedule: Q01DX Z (ip), vehicle: saline): 141 % of control
T/C (dose: 37.5 mg/kg/injection, schedule: Q01DX001 (ip), vehicle: saline, evaluated on day 20): 122 % of control
T/C (dose: 37.5 mg/kg/injection, schedule: Q01DX001 (ip), vehicle: saline, evaluated on day 30): 98, 103, 105, 114 (2×), 115, 117, 118, 126, 128, 130, 135 % of control (2×)
T/C (dose: 38.0 mg/kg/injection, schedule: Q01DX Z (ip), vehicle: carboxymethylcellulose (CMC)): 147 % of control
T/C (dose: 40.0 mg/kg/injection, schedule: Q## X008 (ip), vehicle: saline): 141 % of control
T/C (dose: 43.0 mg/kg/injection, schedule: Q02DX010 (ip), vehicle: carboxymethylcellulose (CMC)): 150, 153, 171, 173, 191, 197 % of control
T/C (dose: 44.0 mg/kg/injection, schedule: Q## X008 (ip), vehicle: saline): 146 % of control
T/C (dose: 45.0 mg/kg/injection, schedule: Q01DX001 (ip), vehicle: saline): 130 % of control
T/C (dose: 45.0 mg/kg/injection, schedule: Q01DX010 (ip), vehicle: saline): 146, 149, 159, 176 % of control
T/C (dose: 45.0 mg/kg/injection, schedule: Q## X Z (ip), vehicle: saline): 126 % of control
T/C (dose: 50.0 mg/kg/injection, schedule: Q01DX001 (ip), vehicle: saline, evaluated on day 5): 108 % of control
T/C (dose: 50.0 mg/kg/injection, schedule: Q01DX001 (ip), vehicle: saline, evaluated on day 7): 124 and 186 % of control
T/C (dose: 50.0 mg/kg/injection, schedule: Q01DX001 (ip), vehicle: saline, evaluated on day 30): 110, 115, 118, 129 % of control (2×)
T/C (dose: 50.0 mg/kg/injection, schedule: Q01DX001 (ip), vehicle: saline, evaluated on day 45): 126 % of control
T/C (dose: 50.0 mg/kg/injection, schedule: Q01DX001 (ip), vehicle: saline, evaluated on day 60): 114, 122, 123, 133, 134 % of control
T/C (dose: 50.0 mg/kg/injection, schedule: Q01DX001 (ip), vehicle: saline, evaluated on day 63): 126 % of control
T/C (dose: 50.0 mg/kg/injection, schedule: Q01DX001 (ip), vehicle: saline, evaluated on day 64): 185 % of control
T/C (dose: 50.0 mg/kg/injection, schedule: Q01DX001 (ip), vehicle: saline, run until all animals had died): 91, 118, 122, 139 % of control
T/C (dose: 50.0 mg/kg/injection, schedule: Q01DX006 (iv), vehicle: saline): 137 % of control
T/C (dose: 50.0 mg/kg/injection, schedule: Q01DX009 (ip), vehicle: saline): 137 % of control
T/C (dose: 50.0 mg/kg/injection, schedule: Q01DX Z (im), vehicle: saline): 132 % of control
T/C (dose: 50.0 mg/kg/injection, schedule: Q01DX Z (ip), vehicle: methylcellulose (MC)): 128 and 146 % of control
T/C (dose: 50.0 mg/kg/injection, schedule: Q01DX Z (ip), vehicle: saline): 120, 150, 176, 185, 308 % of control
T/C (dose: 50.0 mg/kg/injection, schedule: Q04DX002 (ip), vehicle: saline): 130 % of control
T/C (dose: 50.0 mg/kg/injection, schedule: Q04DX003 (ip), vehicle: saline): 133 and 141 % of control
T/C (dose: 50.0 mg/kg/injection, schedule: Q07DX003 (ip), vehicle: saline): 131 % of control
T/C (dose: 54.0 mg/kg/injection, schedule: Q01DX009 (ip), vehicle: saline): 136 % of control
T/C (dose: 54.0 mg/kg/injection, schedule: Q## X004 (ip), vehicle: saline): 148 % of control
T/C (dose: 59.0 mg/kg/injection, schedule: Q01DX001 (ip), vehicle: saline, evaluated on day 5): 131 % of control
T/C (dose: 59.0 mg/kg/injection, schedule: Q01DX001 (ip), vehicle: saline, evaluated on day 45): 132 % of control
T/C (dose: 59.0 mg/kg/injection, schedule: Q04DX002 (ip), vehicle: saline): 135, 138, 142, 160 % of control
T/C (dose: 60.0 mg/kg/injection, schedule: Q02DX010 (ip), vehicle: carboxymethylcellulose (CMC)): 139 % of control
T/C (dose: 62.5 mg/kg/injection, schedule: Q01DX001 (ip), vehicle: saline): 142 % of control
T/C (dose: 62.5 mg/kg/injection, schedule: Q01DX001 (ip), vehicle: water, evaluated on day 30): 146 % of control
T/C (dose: 62.5 mg/kg/injection, schedule: Q01DX001 (ip), vehicle: water, evaluated on day 45): 126 % of control
T/C (dose: 64.0 mg/kg/injection, schedule: Q## X032 (ip), vehicle: saline): 126 % of control
T/C (dose: 64.5 mg/kg/injection, schedule: Q02DX010 (ip), vehicle: other): 146 % of control
T/C (dose: 65.0 mg/kg/injection, schedule: Q01DX001 (ip), vehicle: saline): 132 % of control
T/C (dose: 65.0 mg/kg/injection, schedule: Q01DX001 (sc), vehicle: saline): 138 and 142 % of control
T/C (dose: 65.0 mg/kg/injection, schedule: Q08DX002 (ip), vehicle: saline): 136 % of control
T/C (dose: 66.0 mg/kg/injection, schedule: Q01DX001 (ip), vehicle: saline): 131 % of control
T/C (dose: 67.0 mg/kg/injection, schedule: Q02DX010 (ip), vehicle: carboxymethylcellulose (CMC)): 140, 162, 185, 225, 233 % of control
T/C (dose: 75.0 mg/kg/injection, schedule: Q01DX001 (ip), vehicle: saline with Tween-80): 132 % of control
T/C (dose: 75.0 mg/kg/injection, schedule: Q01DX001 (ip), vehicle: saline, evaluated on day 20): 127 % of control
T/C (dose: 75.0 mg/kg/injection, schedule: Q01DX001 (ip), vehicle: saline, evaluated on day 30): 99, 115, 117, 131, 132, 134, 137, 138 [5 of 6 alive], 139 (2×), 146, 148, 150 % of control
T/C (dose: 75.0 mg/kg/injection, schedule: Q01DX001 (ip), vehicle: water, evaluated on day 5): 124, 133, 185 % of control
T/C (dose: 75.0 mg/kg/injection, schedule: Q01DX001 (ip), vehicle: water, evaluated on day 30): 196 % of control
T/C (dose: 75.0 mg/kg/injection, schedule: Q01DX001 (ip), vehicle: water, evaluated on day 60): 133 and 154 % of control
